No constants are given. Whether binding was seen depends on the method and setting. Binding seen in cells or lysates may run through a third protein. Some entries that bind do so weakly or less than the wild type. For some assays here: Tags and fused reporters may be left off the sequences shown.
Legend:
[1] = target: T1, FLAG-tagged full-length heme oxygenase-1 (HO-1) (human) (UniProt P09601); experiment: co-IP; HEK293 cells co-transfected with Flag-tagged HO-1 (full length, point mutants or deletion mutants) and HA-14-3-3ζ; IP with anti-FLAG, immunoblot
T1 sequence: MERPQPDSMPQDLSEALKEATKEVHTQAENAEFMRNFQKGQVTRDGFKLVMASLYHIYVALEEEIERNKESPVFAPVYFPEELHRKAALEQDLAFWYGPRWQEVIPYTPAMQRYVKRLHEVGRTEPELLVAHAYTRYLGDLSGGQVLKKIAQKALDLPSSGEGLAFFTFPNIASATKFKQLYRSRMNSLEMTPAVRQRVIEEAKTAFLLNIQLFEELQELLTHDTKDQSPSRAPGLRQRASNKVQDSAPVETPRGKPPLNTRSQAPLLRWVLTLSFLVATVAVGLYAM

The chains behind the UniProt entries cited, without tags or fusion partners.
UniProt P63104: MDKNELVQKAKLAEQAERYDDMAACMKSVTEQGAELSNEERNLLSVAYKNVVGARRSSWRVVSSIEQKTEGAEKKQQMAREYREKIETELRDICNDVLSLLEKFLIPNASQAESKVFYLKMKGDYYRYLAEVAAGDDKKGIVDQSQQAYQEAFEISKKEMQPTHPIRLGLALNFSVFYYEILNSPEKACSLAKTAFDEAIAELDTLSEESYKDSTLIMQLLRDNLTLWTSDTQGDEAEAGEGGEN

[2] = target: T2, FLAG-tagged HO-1 S247A (human) (UniProt P09601); experiment: as above
T2 sequence: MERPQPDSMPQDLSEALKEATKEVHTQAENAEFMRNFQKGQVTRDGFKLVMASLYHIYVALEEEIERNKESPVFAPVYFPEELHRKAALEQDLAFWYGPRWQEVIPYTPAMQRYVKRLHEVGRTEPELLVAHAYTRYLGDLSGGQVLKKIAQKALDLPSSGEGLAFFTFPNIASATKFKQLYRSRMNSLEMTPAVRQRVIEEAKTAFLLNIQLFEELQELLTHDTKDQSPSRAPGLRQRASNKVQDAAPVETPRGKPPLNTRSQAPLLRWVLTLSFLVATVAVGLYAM

[3] = target: T3, FLAG-tagged HO-1 T124A (human) (UniProt P09601); experiment: as above
T3 sequence: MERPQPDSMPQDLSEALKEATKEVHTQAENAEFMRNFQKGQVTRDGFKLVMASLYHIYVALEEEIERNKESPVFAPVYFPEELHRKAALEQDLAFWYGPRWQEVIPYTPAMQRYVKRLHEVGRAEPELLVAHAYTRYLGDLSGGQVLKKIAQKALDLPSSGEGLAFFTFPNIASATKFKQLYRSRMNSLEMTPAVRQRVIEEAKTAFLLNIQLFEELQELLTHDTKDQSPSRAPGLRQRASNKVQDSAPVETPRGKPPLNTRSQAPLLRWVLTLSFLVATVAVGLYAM

[4] = target: T4, FLAG-tagged HO-1 S8A (human) (UniProt P09601); experiment: as above
T4 sequence: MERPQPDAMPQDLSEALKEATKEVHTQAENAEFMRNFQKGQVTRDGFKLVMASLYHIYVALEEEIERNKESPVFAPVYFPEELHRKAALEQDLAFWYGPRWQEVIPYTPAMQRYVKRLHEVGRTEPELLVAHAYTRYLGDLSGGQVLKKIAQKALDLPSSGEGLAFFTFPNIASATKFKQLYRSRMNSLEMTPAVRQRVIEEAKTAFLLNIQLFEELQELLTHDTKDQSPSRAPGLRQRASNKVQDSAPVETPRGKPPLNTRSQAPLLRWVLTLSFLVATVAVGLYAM

[5] = target: T5, FLAG-tagged HO-1 S188A (human) (UniProt P09601); experiment: as above
T5 sequence: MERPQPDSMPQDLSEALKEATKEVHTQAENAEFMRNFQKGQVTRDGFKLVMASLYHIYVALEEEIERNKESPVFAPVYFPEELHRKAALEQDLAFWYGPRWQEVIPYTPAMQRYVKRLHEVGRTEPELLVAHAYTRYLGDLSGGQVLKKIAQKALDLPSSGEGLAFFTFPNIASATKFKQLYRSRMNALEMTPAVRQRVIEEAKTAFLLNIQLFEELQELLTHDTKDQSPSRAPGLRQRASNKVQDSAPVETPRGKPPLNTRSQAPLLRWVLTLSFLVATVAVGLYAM

[6] = target: T1, FLAG-tagged full-length heme oxygenase-1 (HO-1) (human); experiment: co-IP; whole cell lysate of HEK293 cells transfected with Flag-tagged HO-1; IP with anti-FLAG or anti-14-3-3ζ, blot for FLAG and 14–3-3ζ
[7] = target: T6, heme oxygenase-1 (HO-1), endogenous (human (endogenous in Bel7402)) (UniProt P09601); experiment: co-IP; Bel7402 cell lysate, endogenous proteins; IP with anti-14-3-3ζ or anti-HO-1, blot for 14–3-3ζ and HO-1
T6 sequence: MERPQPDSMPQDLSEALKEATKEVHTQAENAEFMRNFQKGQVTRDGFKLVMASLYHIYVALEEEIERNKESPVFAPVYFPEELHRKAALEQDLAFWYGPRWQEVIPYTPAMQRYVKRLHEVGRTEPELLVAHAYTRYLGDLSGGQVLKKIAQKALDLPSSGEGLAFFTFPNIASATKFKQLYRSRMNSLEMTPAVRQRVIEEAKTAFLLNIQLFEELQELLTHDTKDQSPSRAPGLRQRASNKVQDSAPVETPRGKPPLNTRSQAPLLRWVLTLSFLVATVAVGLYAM

[8] = target: 14–3-3ζ (endogenous) (human (endogenous in HEK293 and Bel7402)) (UniProt P63104); experiment: as above

Molecule: HA-tagged 14–3-3ζ (from UniProt P63104 1-245)
- binding [1]: binds
- binding [2]: binds
- binding [3]: binds
- binding [4]: binds
- binding [5]: binds

Molecule: 14–3-3ζ (endogenous) (from UniProt P63104 1-245)
- binding [6]: binds
- binding [7]: binds

B1: heme oxygenase-1 (HO-1), endogenous (enzyme, UniProt P09601 1-288)
chain: MERPQPDSMPQDLSEALKEATKEVHTQAENAEFMRNFQKGQVTRDGFKLVMASLYHIYVALEEEIERNKESPVFAPVYFPEELHRKAALEQDLAFWYGPRWQEVIPYTPAMQRYVKRLHEVGRTEPELLVAHAYTRYLGDLSGGQVLKKIAQKALDLPSSGEGLAFFTFPNIASATKFKQLYRSRMNSLEMTPAVRQRVIEEAKTAFLLNIQLFEELQELLTHDTKDQSPSRAPGLRQRASNKVQDSAPVETPRGKPPLNTRSQAPLLRWVLTLSFLVATVAVGLYAM
- binding [8]: binds
